# Source: PubChem BioAssay AID504467 (National Center for Advancing Translational Sciences (NCATS), 2011)
# Screen size: about 330,000 compounds; about 7,700 (2.3%) were called active. Inconclusive means that the source gave no clear call. Such entries were picked first, then a sample of the others. Calls come from the whole dose curve; as a rule, active = well fitted inhibition curve with a large enough effect; inconclusive = small, poorly fitted or top-dose-only effect, or effect the other way; inactive = flat fitted curve, though single readings scatter. Potencies beside an inconclusive call are fits to weak or partial responses and may not hold up.
# Test: qHTS screen for small molecules that inhibit ELG1-dependent DNA repair in human embryonic kidney (HEK293T) cells expressing luciferase-tagged ELG1; note: nearly all actives have a fitted effect of over 55% in size
# Settings: HEK293T ELG1-luciferase reporter, luminescence, 16 h, DNA damage induced by 5-fluorouridine; series mostly up to 46.1 µM
# How it was run: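 Step one: seed 2,000 cells per well. Step two: pin-transfer compound or DMSO alongside 5-fluorouridine. Step three: incubate 16 hr, 37 °C, 5% CO2. Step four: add ONE-Glo, wait 30 min, read luminescence.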
# Potency is the fitted concentration of half-maximal effect.
row,SMILES,Potency
1,O=C(Cc1cccc(F)c1)Nc1ccc2c(c1)CCC2,"inconclusive: 18.3 µM [activator, partial curve]"
2,C=Cn1ccnc1P(=S)(c1ccc2c(c1)c1ccccc1n2CC)c1nccn1C=C,"inconclusive: 14.6 µM [inhibitor, partial curve, poor fit]"
3,O=C1CCCN1CC(O)CS(=O)(=O)Cc1ccccc1Cl (stereo unspecified),"inconclusive: 0.164 µM [inhibitor, single point]"
4,O=S(=O)(NC1CC1)c1ccc(S(=O)(=O)N2CCCc3ccccc32)cc1,"inconclusive: 13 µM [inhibitor, partial curve]"
5,CCN(CC(=O)Nc1ccccc1-c1ccccc1)Cc1nc2ccccc2c(=O)[nH]1,"inconclusive: 18.3 µM [inhibitor, single point]"
6,COc1ccc(C2c3[nH]c4ccccc4c3CCN2C(=O)Cc2nonc2C)c(F)c1 (stereo unspecified),"inconclusive: 20.6 µM [activator, single point]"
7,CCN(C[C@H]1N[C@@](Cc2ccccc2)(C(=O)OC)[C@H]2C(=O)N(Cc3ccccc3)C(=O)[C@@H]12)C(=O)Nc1ccc(C(F)(F)F)cc1,"inconclusive: 29.1 µM [inhibitor, single point]"
8,COc1cccc(C(=O)NCCS(=O)(=O)NCC2CCCO2)c1 (stereo unspecified),inactive
9,CCOC(=O)c1sc(/N=C/c2c(O)ccc3ccccc23)cc1C,"inconclusive: 20.6 µM [activator, partial curve, poor fit]"
10,CCCCC(=O)NC(c1ccc(N(CC)CC)cc1)c1ccc2cccnc2c1O (stereo unspecified),"inconclusive: 5.8 µM [inhibitor, full curve]"
11,Cc1nc(SCC(=O)CC(=O)OC(C)C)c(C#N)c(C)c1C,"inconclusive: 29.1 µM [activator, partial curve, poor fit]"
12,Cc1[nH][nH]c(=O)c1N=Nc1ccc(F)cc1,"inconclusive: 10.3 µM [activator, partial curve, poor fit]"
13,O=C(NC1CCCCCCC1)c1cccs1,"inconclusive: 14.6 µM [activator, partial curve]"
14,COc1cccc2c(=O)cc(C)n(CC(=O)Nc3ccc(Br)cc3)c12,"inconclusive: 1.64 µM [inhibitor, full curve]"
15,O=C(NNC1=NS(=O)(=O)c2ccccc21)c1ccc(Cl)cc1,"inconclusive: 20.6 µM [activator, single point]"
16,CN1CCN(c2ccc(NC(=O)c3cccs3)cc2)CC1,"inconclusive: 9.2 µM [activator, partial curve]"
17,COc1ccc(N/N=C(\C=N\O)C(=O)c2ccc(OC)cc2)cc1,"inconclusive: 3.26 µM [inhibitor, partial curve, poor fit]"
18,Cc1cc(C(=O)COC(=O)c2cc(Cl)c(O)c(Cl)c2)c(C)n1C,"inconclusive: 20.6 µM [activator, single point]"
19,CCN(c1ccccc1)S(=O)(=O)c1cccc(C(=O)NCC(c2cccs2)N2CCOCC2)c1 (stereo unspecified),inactive
20,CN(CC(=O)Nc1ccc(F)cc1)C(=O)C1Cc2ccccc2CN1S(C)(=O)=O (stereo unspecified),"inconclusive: 29.1 µM [activator, single point]"
21,Cc1cc(C)n2nc(CC(=O)NNC(=O)COc3ccccc3)nc2n1,inactive

# A draw from above in order of SMILES length, smallest number first.
row,SMILES,Potency
1,O=C(Cc1cccc(F)c1)Nc1ccc2c(c1)CCC2,"inconclusive: 18.3 µM [activator, partial curve]"
16,CN1CCN(c2ccc(NC(=O)c3cccs3)cc2)CC1,"inconclusive: 9.2 µM [activator, partial curve]"
4,O=S(=O)(NC1CC1)c1ccc(S(=O)(=O)N2CCCc3ccccc32)cc1,"inconclusive: 13 µM [inhibitor, partial curve]"
7,CCN(C[C@H]1N[C@@](Cc2ccccc2)(C(=O)OC)[C@H]2C(=O)N(Cc3ccccc3)C(=O)[C@@H]12)C(=O)Nc1ccc(C(F)(F)F)cc1,"inconclusive: 29.1 µM [inhibitor, single point]"

# Following part

row,SMILES,Potency
1,C[C@H](CO)N1C[C@H](C)[C@@H](CN(C)S(=O)(=O)c2cccs2)Oc2ccc(NS(=O)(=O)c3ccccc3)cc2CC1=O,"inconclusive: 23.1 µM [inhibitor, single point]"
2,Cc1ccc(NC(=O)COc2cccc(Oc3ccccc3)c2)cc1S(=O)(=O)N1CCOCC1,"inconclusive: 9.2 µM [inhibitor, partial curve]"
3,COc1ccc(-c2csc(NC(=O)[C@H](C)N3C(=O)C4CC=CCC4C3=O)n2)cc1OC (stereo partly specified),"inconclusive: 25.9 µM [inhibitor, single point]"
4,CC(=O)N1CCCc2cc(S(=O)(=O)N3CCC(C)CC3)ccc21,inactive
5,CCOc1ccc(-c2cc(C(=O)NN=C3CCN(C)CC3)[nH]n2)cc1,"inconclusive: 29.1 µM [activator, single point]"
6,CCOC(=O)c1c(NC(=O)CSc2ncccn2)sc2c1CCN(Cc1ccccc1)C2,"inconclusive: 23.1 µM [inhibitor, single point]"
7,O=C(N/N=C/c1cccs1)c1cnccn1,"inconclusive: 18.4 µM [activator, partial curve, poor fit]"
8,CCC(C)NC(=O)C1CCC(CNS(=O)(=O)c2ccccc2)CC1 (stereo unspecified),inactive
9,CC12CCC(=O)N1C(C(=O)Nc1ccc(Cl)c(Cl)c1)CS2 (stereo unspecified),inactive
10,CCOC(=O)c1c(C)[nH]c(C)c1C(=O)CSc1nnc(-c2ccc(OC(F)F)cc2)o1,"inconclusive: 20.6 µM [inhibitor, single point]"
11,Cc1ccc(C(=O)COC(=O)c2cc(Cl)nc3ccccc23)cc1,inactive
12,Cc1nc(NC(=O)c2ccccc2O)sc1C,"inconclusive: 6.51 µM [activator, partial curve]"
13,CCOc1ccc(S(=O)(=O)N2CCC(C(=O)N3CCCCCC3)CC2)cc1Cl,"inconclusive: 16.4 µM [inhibitor, partial curve]"
14,CCCCn1c(SCc2nc3ccccc3s2)nc2cc(S(N)(=O)=O)ccc21,active: 18.4 µM
15,CN(Cc1ccc(F)cc1)C(=O)C(Cc1ccccc1)NC(=O)c1ccccc1 (stereo unspecified),"inconclusive: 22.4 µM [inhibitor, single point]"
16,Cc1ccc(C)c(S(=O)(=O)N2CCN(C(=O)CCNS(=O)(=O)c3ccc(C)c(C)c3)CC2)c1,"inconclusive: 20.6 µM [inhibitor, single point]"
17,Cn1c(SCC(=O)c2ccc(F)cc2)nnc1-c1ccccn1,"inconclusive: 16.4 µM [activator, single point]"
18,CC(C)NC(=O)C1CCN(C(=O)c2cc3sccc3n2Cc2ccc(F)cc2)CC1,active: 18.4 µM
19,COc1ccc(C2c3c(ncn(CCCO)c3=N)Oc3ccc4ccccc4c32)cc1 (stereo unspecified),"inconclusive: 29.1 µM [inhibitor, single point]"
20,CCNC(=O)COc1ccc(F)cc1C(=O)c1cnn(-c2ccccc2)c1,inactive
